From the supplement of paper PMC5949888
Most values lie at the floor of the assay. Slopes are relative: functional sequences can read slightly below zero.

Test system: Saccharomyces cerevisiae PS128 hsf1 delta, HSF1(1-493) fusion
Test: growth estimate (transactivation domain function in HSF1 fusion, heat-shock survival) (a.u. (slope of normalised read count over time)); higher = stronger growth at 37°C, i.e. more transactivation activity
Conditions: library: random library

How did the growth estimate turn out when VRE was run?
Its growth estimate is < -0.25.

Which growth estimate does the source give for VREGRRLRFLASGELTDCRK here?
Its growth estimate is < -0.25.

Which growth estimate does the source give for VRESLGDLTITAYTWYEPGL here?
The growth estimate was < -0.25.

How did the growth estimate turn out when VRFIG was run?
The growth estimate was < -0.25.

With VRGALLGSVTLVCTGARLQN as the substance, how does the growth estimate read?
Its growth estimate is < -0.25.

How did the growth estimate turn out when VRGG was run?
Its growth estimate is < -0.25.

For VRGKVQDNKGGIPRFLAMSS, which growth estimate is on record?
Its growth estimate is < -0.25.

How did the growth estimate turn out when VRGMHQRPLPSIVRTFVLVT was run?
Its growth estimate is < -0.25.

With VRGSKLKVILLPLV as the substance, how does the growth estimate read?
Its growth estimate is < -0.25.

VRHLD was tested. Which growth estimate did it give?
The growth estimate was < -0.25.

VRIALR was tested. Which growth estimate did it give?
Its growth estimate is -0.239.

How did the growth estimate turn out when VRIGCHGADLSPSYARMSHT was run?
Its growth estimate is < -0.25.

How did the growth estimate turn out when VRIIRQ was run?
Its growth estimate is < -0.25.

VRIP was tested. Which growth estimate did it give?
Its growth estimate is < -0.25.

For VRIR, which growth estimate is on record?
Its growth estimate is < -0.25.

VRKLFRPGVLLRK was tested. Which growth estimate did it give?
The growth estimate was < -0.25.

For VRKVFEARQ, which growth estimate is on record?
The growth estimate was < -0.25.

Which growth estimate does the source give for VRLCCCEANGVVSAPDVNLP here?
Its growth estimate is < -0.25.

For VRLFCVWLRMSRVVPYGRVE, which growth estimate is on record?
Its growth estimate is < -0.25.

How did the growth estimate turn out when VRLGFVGI was run?
The growth estimate was < -0.25.

Which growth estimate does the source give for VRLHRFDNS here?
The growth estimate was < -0.25.

VRLSPVTPRSRMASKAMLWH was tested. Which growth estimate did it give?
Its growth estimate is < -0.25.

With VRLSTICFCHQ as the substance, how does the growth estimate read?
Its growth estimate is -0.248.

How did the growth estimate turn out when VRMIGLLSRARTRTPFSSPK was run?
Its growth estimate is -0.245.

How did the growth estimate turn out when VRNHLVIGIVKVIAAKNIGV was run?
The growth estimate was < -0.25.

How did the growth estimate turn out when VRNSLGRGGERIGVYSVSWG was run?
Its growth estimate is < -0.25.

With VRPI as the substance, how does the growth estimate read?
Its growth estimate is < -0.25.

For VRPLPDIRPGTRVTQLRSGQ, which growth estimate is on record?
The growth estimate was < -0.25.

VRPLTLQSPTLVRIFDTDRA was tested. Which growth estimate did it give?
Its growth estimate is < -0.25.

How did the growth estimate turn out when VRPNRPTPRERRSGVHGETS was run?
Its growth estimate is < -0.25.

With VRQLV as the substance, how does the growth estimate read?
Its growth estimate is < -0.25.

Which growth estimate does the source give for VRRGAAANSLRVIPAILSWH here?
Its growth estimate is < -0.25.

Which growth estimate does the source give for VRRGPFAFVEAIGCQL here?
The growth estimate was < -0.25.

Which growth estimate does the source give for VRRGSAIIGRSKVPLGKEVL here?
The growth estimate was < -0.25.

VRRGSGLLC was tested. Which growth estimate did it give?
The growth estimate was < -0.25.

For VRRLPAADRFGNHIESSHEF, which growth estimate is on record?
Its growth estimate is < -0.25.

For VRRSIKR, which growth estimate is on record?
The growth estimate was < -0.25.

How did the growth estimate turn out when VRSEAGRPKRGLGSTS was run?
Its growth estimate is < -0.25.

For VRSFVSRGLHR, which growth estimate is on record?
The growth estimate was < -0.25.

With VRSLVSNSEVTSSCAFATTR as the substance, how does the growth estimate read?
Its growth estimate is < -0.25.

How did the growth estimate turn out when VRSSVVDFPASSWRILLARC was run?
Its growth estimate is < -0.25.

How did the growth estimate turn out when VRTALKASFAQIVVAFKFFV was run?
The growth estimate was < -0.25.

VRTCLST was tested. Which growth estimate did it give?
Its growth estimate is < -0.25.

With VRTSAHARMNGSYDTVRFLW as the substance, how does the growth estimate read?
The growth estimate was < -0.25.

With VRTSQR as the substance, how does the growth estimate read?
Its growth estimate is -0.25.

With VRVCLSEIRRIFSDTHTWQG as the substance, how does the growth estimate read?
The growth estimate was < -0.25.

With VRVLATEVAAPPGRSVNQSP as the substance, how does the growth estimate read?
The growth estimate was < -0.25.

VRVQA was tested. Which growth estimate did it give?
Its growth estimate is -0.245.

With VRVQPVAPRLGAVSNTGTPS as the substance, how does the growth estimate read?
Its growth estimate is < -0.25.

VRWCFGDLPRGGLRMLTSFT was tested. Which growth estimate did it give?
Its growth estimate is < -0.25.

Which growth estimate does the source give for VRWGLGRRKAGLAFERFVGL here?
The growth estimate was -0.228.

With VRWHL as the substance, how does the growth estimate read?
The growth estimate was -0.231.

How did the growth estimate turn out when VRWMPPI was run?
The growth estimate was < -0.25.

Which growth estimate does the source give for VRWVNTGLKDREKGGSGVGA here?
The growth estimate was < -0.25.

Which growth estimate does the source give for VRYA here?
Its growth estimate is < -0.25.

For VRYEKCTDPSGAEVLGGTVF, which growth estimate is on record?
The growth estimate was < -0.25.

With VRYILR as the substance, how does the growth estimate read?
Its growth estimate is < -0.25.

For VRYSVAKRLRRPIGKHSA, which growth estimate is on record?
Its growth estimate is < -0.25.

Which growth estimate does the source give for VSADPDAPSDVRFKAEVNDD here?
The growth estimate was < -0.25.

Which growth estimate does the source give for VSALFFDNMCGIVEFIIGVN here?
The growth estimate was < -0.25.

With VSAYRAVKMLLG as the substance, how does the growth estimate read?
The growth estimate was < -0.25.

Which growth estimate does the source give for VSCLSTSVGEGLSYLSPIDG here?
The growth estimate was < -0.25.

How did the growth estimate turn out when VSCPFRWFICRLQTDCKPRR was run?
The growth estimate was < -0.25.

For VSCRAENIAGISLL, which growth estimate is on record?
The growth estimate was < -0.25.

VSDRSDGSLNFFRGV was tested. Which growth estimate did it give?
Its growth estimate is < -0.25.

VSEAI was tested. Which growth estimate did it give?
Its growth estimate is < -0.25.

Which growth estimate does the source give for VSELAAVIT here?
Its growth estimate is < -0.25.

With VSEQCGMVGGLTSAHRA as the substance, how does the growth estimate read?
Its growth estimate is < -0.25.

Which growth estimate does the source give for VSFGPIR here?
Its growth estimate is < -0.25.

VSG was tested. Which growth estimate did it give?
Its growth estimate is < -0.25.

With VSGGIKFTARWIGAGNRPSP as the substance, how does the growth estimate read?
The growth estimate was < -0.25.

For VSGGVAEKDD, which growth estimate is on record?
Its growth estimate is < -0.25.

How did the growth estimate turn out when VSGLITYMRFV was run?
The growth estimate was < -0.25.

With VSGPATIAVPYWWGERCR as the substance, how does the growth estimate read?
The growth estimate was < -0.25.

For VSGPHVWRVGSRPMQNSKSA, which growth estimate is on record?
Its growth estimate is < -0.25.

How did the growth estimate turn out when VSGYSQMAGASSP was run?
The growth estimate was < -0.25.

VSHAARYSRESRRTSAHGHR was tested. Which growth estimate did it give?
Its growth estimate is < -0.25.

How did the growth estimate turn out when VSHRNLLNWPSAVSFIRYNC was run?
Its growth estimate is < -0.25.

VSHSEGP was tested. Which growth estimate did it give?
The growth estimate was < -0.25.

With VSIEAQ as the substance, how does the growth estimate read?
The growth estimate was < -0.25.

VSIMFTGGGLRGHNRYAASL was tested. Which growth estimate did it give?
Its growth estimate is < -0.25.

VSIQDVQRGVRL was tested. Which growth estimate did it give?
Its growth estimate is < -0.25.
